Results as given in paper PMC6991697.
No constants are given. Whether binding was seen depends on the method and setting. Binding seen in cells or lysates may run through a third protein. Some entries that bind do so weakly or less than the wild type.

Sequences of proteins named here, by UniProt entry; tags and fusion partners are left off.
UniProt P0DMV8: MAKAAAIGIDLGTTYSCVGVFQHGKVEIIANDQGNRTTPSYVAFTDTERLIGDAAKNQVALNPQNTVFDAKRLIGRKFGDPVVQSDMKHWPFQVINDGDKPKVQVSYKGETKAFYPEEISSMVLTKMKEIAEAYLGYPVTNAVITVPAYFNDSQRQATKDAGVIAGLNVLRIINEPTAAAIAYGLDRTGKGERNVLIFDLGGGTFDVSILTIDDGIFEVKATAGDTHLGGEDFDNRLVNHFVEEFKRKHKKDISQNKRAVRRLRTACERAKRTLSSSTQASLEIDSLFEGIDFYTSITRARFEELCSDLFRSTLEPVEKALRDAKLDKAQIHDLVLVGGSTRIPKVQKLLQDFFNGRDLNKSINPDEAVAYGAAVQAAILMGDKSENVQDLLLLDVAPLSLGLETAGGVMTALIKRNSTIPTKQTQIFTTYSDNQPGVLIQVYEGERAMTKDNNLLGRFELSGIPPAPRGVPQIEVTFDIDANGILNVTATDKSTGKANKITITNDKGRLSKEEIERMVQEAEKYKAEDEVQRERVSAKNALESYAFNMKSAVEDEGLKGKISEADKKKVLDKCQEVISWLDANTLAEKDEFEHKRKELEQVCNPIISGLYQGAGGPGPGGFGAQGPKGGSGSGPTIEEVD

Biological target: T1, LIM and SH3 protein 1 (LASP1), endogenous (human (endogenous in CAL27 and HN6)) (UniProt Q14847)
T1 sequence: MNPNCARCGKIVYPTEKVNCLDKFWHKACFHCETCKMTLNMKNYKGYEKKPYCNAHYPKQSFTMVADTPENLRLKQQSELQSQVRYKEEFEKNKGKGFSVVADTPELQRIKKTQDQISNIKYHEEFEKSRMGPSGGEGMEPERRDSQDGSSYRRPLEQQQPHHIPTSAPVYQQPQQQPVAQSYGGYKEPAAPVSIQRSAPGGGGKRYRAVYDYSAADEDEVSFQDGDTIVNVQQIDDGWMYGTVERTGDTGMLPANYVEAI
Assay: co-IP; endogenous proteins; cell lysates (1 mg/mL) with anti-LASP1 or anti-HSPA1A antibody and protein A/protein G agarose beads overnight at 4°C, washed with PBS 3 times; Western blot with anti-LASP1 or anti-HSPA1A

With “Heat shock protein family A member 1A (HSPA1A), endogenous (from UniProt P0DMV8 1-641)” as the substance, how does the binding read?
The binding was “binds”.
